Measured values as given in publication PMC3706418.
No constants are given. Whether binding was seen depends on the method and setting. Binding seen in cells or lysates may run through a third protein. Some entries that bind do so weakly or less than the wild type. Tags and fused reporters may be left off the sequences shown.

By UniProt entry, the sequences of proteins in these tests, tags left out.
UniProt P10415: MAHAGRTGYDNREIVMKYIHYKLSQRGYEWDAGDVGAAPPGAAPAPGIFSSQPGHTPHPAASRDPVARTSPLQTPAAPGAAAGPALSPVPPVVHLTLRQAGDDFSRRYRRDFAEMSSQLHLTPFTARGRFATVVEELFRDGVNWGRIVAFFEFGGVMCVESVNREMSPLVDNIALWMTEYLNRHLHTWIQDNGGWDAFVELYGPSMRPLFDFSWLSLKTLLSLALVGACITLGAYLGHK

T1: GST-mSHP full length (mouse) (UniProt Q62227)
T1 sequence: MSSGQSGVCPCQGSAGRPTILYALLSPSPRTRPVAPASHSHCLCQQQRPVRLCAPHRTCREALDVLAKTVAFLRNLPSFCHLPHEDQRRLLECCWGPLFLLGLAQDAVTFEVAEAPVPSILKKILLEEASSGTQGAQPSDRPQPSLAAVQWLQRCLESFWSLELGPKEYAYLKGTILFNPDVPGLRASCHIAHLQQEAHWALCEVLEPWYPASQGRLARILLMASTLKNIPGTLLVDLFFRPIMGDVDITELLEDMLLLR

T2: HA-HNF4α (UniProt P41235)
T2 sequence: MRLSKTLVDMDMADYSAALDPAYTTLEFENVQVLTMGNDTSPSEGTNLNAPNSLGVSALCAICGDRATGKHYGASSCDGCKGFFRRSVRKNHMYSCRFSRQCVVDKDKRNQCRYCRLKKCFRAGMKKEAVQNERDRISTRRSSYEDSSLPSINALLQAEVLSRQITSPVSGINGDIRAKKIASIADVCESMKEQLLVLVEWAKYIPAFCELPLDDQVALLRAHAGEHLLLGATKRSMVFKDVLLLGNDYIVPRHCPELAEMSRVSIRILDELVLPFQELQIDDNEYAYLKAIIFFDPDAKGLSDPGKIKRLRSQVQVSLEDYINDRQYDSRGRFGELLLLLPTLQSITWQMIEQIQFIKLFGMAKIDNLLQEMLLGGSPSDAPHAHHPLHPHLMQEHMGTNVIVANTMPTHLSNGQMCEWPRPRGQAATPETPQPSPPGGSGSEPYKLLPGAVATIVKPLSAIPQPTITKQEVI


Legend:
[1] = molecular target: T1, GST-mSHP full length (mouse); assay: pull-down; GST or GST-mSHP fusion proteins bound to glutathione MagneGST particles; in vitro translated Bcl2 proteins added, without or with AHPN (Fig. 4B); bound Bcl2 detected by Western blot (Bcl2 or Myc antibody); only the target purified
HA-HNF4α = molecular target: T2, HA-HNF4α; assay: co-IP; HEK293T cells co-transfected with GFP-mSHP constructs and HA-HNF4α; lysate precipitated with anti-HA agarose overnight at 4°C; Western blot with anti-GFP and anti-HA

| binding [1] | binding (HA-HNF4α) | Molecule |
| --- | --- | --- |
| binds |  | Bcl2 wild-type (from UniProt P10415 1-239) |
|  | binds | GFP-mSHP(FL) (protein, UniProt Q62227 1-260) MSSGQSGVCPCQGSAGRPTILYALLSPSPRTRPVAPASHSHCLCQQQRPVRLCAPHRTCREALDVLAKTVAFLRNLPSFCHLPHEDQRRLLECCWGPLFLLGLAQDAVTFEVAEAPVPSILKKILLEEASSGTQGAQPSDRPQPSLAAVQWLQRCLESFWSLELGPKEYAYLKGTILFNPDVPGLRASCHIAHLQQEAHWALCEVLEPWYPASQGRLARILLMASTLKNIPGTLLVDLFFRPIMGDVDITELLEDMLLLR |
